Test [1] addresses GST-PR(CDE) fusion protein (human PR B aa 456-933) (human) (UniProt P06401). Briefly: GST-PR(CDE) pull-down of IVT N-terminal EDD derivatives.
Test [2] has as its target GST fused to amino acids 263-538 of human importin α5 (NPI-1) (human) (UniProt P52294). As to the kind of experiment: GST pull-down of IVT N-terminal EDD derivatives.
For test [3], the target named is GST-PR(CDE) fusion protein (human PR B aa 456-933) (human) (UniProt P06401). Briefly: GST-PR(CDE) pull-down of IVT 35S-EDD fragments.
The target of test [4] is GST fused to amino acids 263-538 of human importin α5 (NPI-1) (human) (UniProt P52294). As to the kind of experiment: GST pull-down of IVT 35S-EDD fragments.
In test [5] the target is T1, GST-CIB fusion protein (full-length CIB in pGEX2T) (human) (UniProt Q99828).
T1 sequence: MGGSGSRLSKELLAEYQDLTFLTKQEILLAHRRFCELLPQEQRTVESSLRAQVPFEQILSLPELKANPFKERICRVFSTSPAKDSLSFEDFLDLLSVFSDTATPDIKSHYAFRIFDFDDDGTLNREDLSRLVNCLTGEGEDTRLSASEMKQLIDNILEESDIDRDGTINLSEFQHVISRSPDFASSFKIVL
Briefly: GST-CIB pull-down of IVT 35S-EDD fragments.

Protein sequences, listed by entry. Tags and fused reporters are not part of them. Lines headed by an entry give the natural chain unless they say otherwise; changes in a name come on top.
UniProt P06401: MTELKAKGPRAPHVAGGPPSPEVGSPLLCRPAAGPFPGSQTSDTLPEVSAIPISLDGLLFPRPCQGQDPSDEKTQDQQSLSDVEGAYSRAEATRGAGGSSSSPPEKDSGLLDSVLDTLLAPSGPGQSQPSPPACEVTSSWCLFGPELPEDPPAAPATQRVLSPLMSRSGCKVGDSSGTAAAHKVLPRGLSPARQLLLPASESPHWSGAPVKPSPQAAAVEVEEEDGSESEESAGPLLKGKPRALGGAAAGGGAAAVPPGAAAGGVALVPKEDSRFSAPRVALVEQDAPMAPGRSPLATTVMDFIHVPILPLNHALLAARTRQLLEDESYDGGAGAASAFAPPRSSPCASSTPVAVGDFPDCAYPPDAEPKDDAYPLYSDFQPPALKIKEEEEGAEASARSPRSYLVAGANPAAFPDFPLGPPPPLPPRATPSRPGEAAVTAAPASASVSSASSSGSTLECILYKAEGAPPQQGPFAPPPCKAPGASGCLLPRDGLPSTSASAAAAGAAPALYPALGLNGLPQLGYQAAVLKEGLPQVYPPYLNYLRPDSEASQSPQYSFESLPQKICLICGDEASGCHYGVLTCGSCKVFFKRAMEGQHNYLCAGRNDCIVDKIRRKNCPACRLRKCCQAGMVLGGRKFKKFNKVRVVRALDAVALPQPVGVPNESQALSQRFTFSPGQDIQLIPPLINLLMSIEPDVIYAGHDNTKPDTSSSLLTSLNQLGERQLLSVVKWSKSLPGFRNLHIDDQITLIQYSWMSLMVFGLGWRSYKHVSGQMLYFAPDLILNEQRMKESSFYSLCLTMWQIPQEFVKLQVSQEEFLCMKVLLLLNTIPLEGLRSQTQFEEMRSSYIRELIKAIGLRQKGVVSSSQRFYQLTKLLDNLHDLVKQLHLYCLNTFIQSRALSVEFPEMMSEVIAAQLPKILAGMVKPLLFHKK
UniProt P52294: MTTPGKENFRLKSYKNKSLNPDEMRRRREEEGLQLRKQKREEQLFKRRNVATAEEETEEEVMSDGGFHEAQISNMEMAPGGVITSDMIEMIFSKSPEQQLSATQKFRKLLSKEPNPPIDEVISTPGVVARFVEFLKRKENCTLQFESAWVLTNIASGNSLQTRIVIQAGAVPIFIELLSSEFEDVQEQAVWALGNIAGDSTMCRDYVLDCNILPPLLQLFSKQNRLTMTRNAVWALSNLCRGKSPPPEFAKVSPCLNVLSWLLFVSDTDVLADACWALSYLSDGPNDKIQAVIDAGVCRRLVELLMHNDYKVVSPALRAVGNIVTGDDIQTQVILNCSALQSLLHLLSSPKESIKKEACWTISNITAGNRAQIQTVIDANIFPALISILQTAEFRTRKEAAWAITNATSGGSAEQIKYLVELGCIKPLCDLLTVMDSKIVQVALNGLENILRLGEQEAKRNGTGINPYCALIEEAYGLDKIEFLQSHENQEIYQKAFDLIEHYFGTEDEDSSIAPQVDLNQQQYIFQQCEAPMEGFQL
UniProt O96017: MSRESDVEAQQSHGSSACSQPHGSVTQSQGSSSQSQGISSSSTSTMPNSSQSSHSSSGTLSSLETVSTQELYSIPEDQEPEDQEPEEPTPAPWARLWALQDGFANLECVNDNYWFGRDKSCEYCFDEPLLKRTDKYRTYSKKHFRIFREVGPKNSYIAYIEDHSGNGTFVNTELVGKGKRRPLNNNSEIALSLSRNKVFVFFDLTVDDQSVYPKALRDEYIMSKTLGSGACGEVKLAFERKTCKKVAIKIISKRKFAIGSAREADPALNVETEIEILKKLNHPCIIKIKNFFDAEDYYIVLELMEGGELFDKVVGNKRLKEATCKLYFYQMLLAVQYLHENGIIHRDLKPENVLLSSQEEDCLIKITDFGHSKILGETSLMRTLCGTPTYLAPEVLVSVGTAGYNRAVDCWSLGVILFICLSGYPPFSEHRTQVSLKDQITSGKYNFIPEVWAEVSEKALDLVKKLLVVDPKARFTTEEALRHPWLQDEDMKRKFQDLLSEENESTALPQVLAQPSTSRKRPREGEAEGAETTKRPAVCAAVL

Test [6] concerns the target GSTchk2-N (GST fused to chk2 aa 1-225) (human) (UniProt O96017). Briefly: GSTchk2-N pull-down of IVT 35S-EDD deletion mutants.

No constants are given. Whether binding was seen depends on the method and setting. In cells and extracts the contact can be indirect. Some entries that bind do so weakly or less than the wild type. For some of these results: Where a sequence is shown, tags or fusion partners need not be part of it.

B1: EDDF1d (EDD aa 420-889) (protein)
chain: TNEKIVLLSANSIRATVATENNKVATWVDETLSSVASKLEHTAQTYSELQGERIVSLHCCALYTCAQLENSLYWWGVVPFSQRKKMLEKARAKNKKPKSSAGISSMPNITVGTQVCLRNNPLYHAGAVAFSISAGIPKVGVLMESVWNMNDSCRFQLRSPESLKNMEKASKTTEAKPESKQEPVKTEMGPPPSPASTCSDASSIASSASMPYKRRRSTPAPKEEEKVNEEQWSLREVVFVEDVKNVPVGKVLKVDGAYVAVKFPGTSSNTNCQNSSGPDADPSSLLQDCRLLRIDELQVVKTGGTPKVPDCFQRTPKKLCIPEKTEILAVNVDSKGVHAVLKTGNWVRYCIFDLATGKAEQENNFPTSSIAFLGQNERNVAIFTAGQESPIILRDGNGTIYPMAKDCMGGIRDPDWLDLPPISSLGMGVHSLINLPANSTIKKKAAVIIMAVEKQTLMQHILRCDYEACR
B1: the binding result in test [1] and in test [2] was “binds” throughout.

B2: EDDF1, N-terminal domain of EDD (aa 1-889) (protein)
chain: MTSIHFVVHPLPGTEDQLNDRLREVSEKLNKYNLNSHPPLNVLEQATIKQCVVGPNHAAFLLEDGRVCRIGFSVQPDRLELGKPDNNDGSKLNSNSGAGRTSRPGRTSDSPWFLSGSETLGRLAGNTLGSRWSSGVGGSGGGSSGRSSAGARDSRRQTRVIRTGRDRGSGLLGSQPQPVIPASVIPEELISQAQVVLQGKSRSVIIRELQRTNLDVNLAVNNLLSRDDEDGDDGDDTASESYLPGEDLMSLLDADIHSAHPSVIIDADAMFSEDISYFGYPSFRRSSLSRLGSSRVLLLPLERDSELLRERESVLRLRERRWLDGASFDNERGSTSKEGEPNLDKKNTPVQSPVSLGEDLQWWPDKDGTKFICIGALYSELLAVSSKGELYQWKWSESEPYRNAQNPSLHHPRATFLGLTNEKIVLLSANSIRATVATENNKVATWVDETLSSVASKLEHTAQTYSELQGERIVSLHCCALYTCAQLENSLYWWGVVPFSQRKKMLEKARAKNKKPKSSAGISSMPNITVGTQVCLRNNPLYHAGAVAFSISAGIPKVGVLMESVWNMNDSCRFQLRSPESLKNMEKASKTTEAKPESKQEPVKTEMGPPPSPASTCSDASSIASSASMPYKRRRSTPAPKEEEKVNEEQWSLREVVFVEDVKNVPVGKVLKVDGAYVAVKFPGTSSNTNCQNSSGPDADPSSLLQDCRLLRIDELQVVKTGGTPKVPDCFQRTPKKLCIPEKTEILAVNVDSKGVHAVLKTGNWVRYCIFDLATGKAEQENNFPTSSIAFLGQNERNVAIFTAGQESPIILRDGNGTIYPMAKDCMGGIRDPDWLDLPPISSLGMGVHSLINLPANSTIKKKAAVIIMAVEKQTLMQHILRCDYEACR
In the case of B2, the binding result in test [3] and in test [4] was “binds” each time.

B3: EDDF3, carboxy domain of EDD (aa 1877-2799) (protein)
chain: NSARRERMTAREEASLRTLEGRRRATLLSARQGMMSARGDFLNYALSLMRSHNDEHSDVLPVLDVCSLKHVAYVFQALIYWIKAMNQQTTLDTPQLERKRTRELLELGIDNEDSEHENDDDTNQSATLNDKDDDSLPAETGQNHPFFRRSDSMTFLGCIPPNPFEVPLAEAIPLADQPHLLQPNARKEDLFGRPSQGLYSSSASSGKCLMEVTVDRNCLEVLPTKMSYAANLKNVMNMQNRQKKEGEEQPVLPEETESSKPGPSAHDLAAQLKSSLLAEIGLTESEGPPLTSFRPQCSFMGMVISHDMLLGRWRLSLELFGRVFMEDVGAEPGSILTELGGFEVKESKFRREMEKLRNQQSRDLSLEVDRDRDLLIQQTMRQLNNHFGRRCATTPMAVHRVKVTFKDEPGEGSGVARSFYTAIAQAFLSNEKLPNLECIQNANKGTHTSLMQRLRNRGERDREREREREMRRSSGLRAGSRRDRDRDFRRQLSIDTRPFRPASEGNPSDDPEPLPAHRQALGERLYPRVQAMQPAFASKITGMLLELSPAQLLLLLASEDSLRARVDEAMELIIAHGRENGADSILDLGLVDSSEKVQQENRKRHGSSRSVVDMDLDDTDDGDDNAPLFYQPGKRGFYTPRPGKNTEARLNCFRNIGRILGLCLLQNELCPITLNRHVIKVLLGRKVNWHDFAFFDPVMYESLRQLILASQSSDADAVFSAMDLAFAIDLCKEEGGGQVELIPNGVNIPVTPQNVYEYVRKYAEHRMLVVAEQPLHAMRKGLLDVLPKNSLEDLTAEDFRLLVNGCGEVNVQMLISFTSFNDESGENAEKLLQFKRWFWSIVEKMSMTERQDLVYFWTSSPSLPASEEGFQPMPSITIRPPDDQHLPTANTCISRLYVPLYSSKQILKQKLLLAIKTKNFGFV
In the case of B3, in test [5], the binding result is recorded as “binds”.

B4: EDDF3M, carboxy domain of EDD (aa 1877-2799) with Cys2768 to Ala (protein)
chain: NSARRERMTAREEASLRTLEGRRRATLLSARQGMMSARGDFLNYALSLMRSHNDEHSDVLPVLDVCSLKHVAYVFQALIYWIKAMNQQTTLDTPQLERKRTRELLELGIDNEDSEHENDDDTNQSATLNDKDDDSLPAETGQNHPFFRRSDSMTFLGCIPPNPFEVPLAEAIPLADQPHLLQPNARKEDLFGRPSQGLYSSSASSGKCLMEVTVDRNCLEVLPTKMSYAANLKNVMNMQNRQKKEGEEQPVLPEETESSKPGPSAHDLAAQLKSSLLAEIGLTESEGPPLTSFRPQCSFMGMVISHDMLLGRWRLSLELFGRVFMEDVGAEPGSILTELGGFEVKESKFRREMEKLRNQQSRDLSLEVDRDRDLLIQQTMRQLNNHFGRRCATTPMAVHRVKVTFKDEPGEGSGVARSFYTAIAQAFLSNEKLPNLECIQNANKGTHTSLMQRLRNRGERDREREREREMRRSSGLRAGSRRDRDRDFRRQLSIDTRPFRPASEGNPSDDPEPLPAHRQALGERLYPRVQAMQPAFASKITGMLLELSPAQLLLLLASEDSLRARVDEAMELIIAHGRENGADSILDLGLVDSSEKVQQENRKRHGSSRSVVDMDLDDTDDGDDNAPLFYQPGKRGFYTPRPGKNTEARLNCFRNIGRILGLCLLQNELCPITLNRHVIKVLLGRKVNWHDFAFFDPVMYESLRQLILASQSSDADAVFSAMDLAFAIDLCKEEGGGQVELIPNGVNIPVTPQNVYEYVRKYAEHRMLVVAEQPLHAMRKGLLDVLPKNSLEDLTAEDFRLLVNGCGEVNVQMLISFTSFNDESGENAEKLLQFKRWFWSIVEKMSMTERQDLVYFWTSSPSLPASEEGFQPMPSITIRPPDDQHLPTANTAISRLYVPLYSSKQILKQKLLLAIKTKNFGFV
Take B4: the binding result in test [5] is listed as “binds”.

B5: EDDF1b (EDD aa 578-889) (protein)
chain: SPESLKNMEKASKTTEAKPESKQEPVKTEMGPPPSPASTCSDASSIASSASMPYKRRRSTPAPKEEEKVNEEQWSLREVVFVEDVKNVPVGKVLKVDGAYVAVKFPGTSSNTNCQNSSGPDADPSSLLQDCRLLRIDELQVVKTGGTPKVPDCFQRTPKKLCIPEKTEILAVNVDSKGVHAVLKTGNWVRYCIFDLATGKAEQENNFPTSSIAFLGQNERNVAIFTAGQESPIILRDGNGTIYPMAKDCMGGIRDPDWLDLPPISSLGMGVHSLINLPANSTIKKKAAVIIMAVEKQTLMQHILRCDYEACR
On to B5, for which the binding result in test [1] and in test [2] was “binds” each time.

B6: EDDF7 (EDDF5 without the RING-like domain) (protein)
chain: VKELQNKYTPGRREEAIAVTMRFLRSVARVFVILSVEMASSKKKNNFIPQPIGKCKRVFQALLPYAVEELCNVAESLIVPVRMGIARPTAPFTLASTSIDAMQGSEELFSVEPLPPRPSSDQSSSSSQSQSSYIIRNPQQRRISQSQPVRGRDEEQDDIVSADVEEVEVVEGVAGEEDHHDEQEEHGEENAEAEGQHDEHDEDGSDMELDLLAAAETESDSESNHSNQDNASGRRSVVTAATAGSEAGASSVPAFFSEDDSQSNDSSDSDSSSSQSDDIEQETFMLDEPLERTTNSSHANGAAQAPRSMQWAVRNTQHQRAASTAPSSTSTPAASSAGLIYIDPSNLRRSGTISTSAAAAAAALEASNASSYLTSASSLARAYSIVIRQISDLMGLIPKYNHLVYSQIPAAVKLTYQDAVNLQNYVEEKLIPTWNWMVSIMDSTEAQLRYGSALASAGDPGHPNHPLHASQNSARRERMTAREEASLRTLEGRRRATLLSARQGMMSARGDFLNYALSLMRSHNDEHSDVLPVLDVCSLKHVAYVFQALIYWIKAMNQQTTLDTPQLERKRTRELLELGIDNEDSEHENDDDTNQSATLNDKDDDSLPAETGQNHPFFRRSDSMTFLGCIPPNPFEVPLAEAIPLADQPHLLQPNARKEDLFGRPSQGLYSSSASSGKCLMEVTVDRNCLEVLPTKMSYAANLKNVMNMQNRQKKEGEEQPVLPEETESSKPGPSAHDLAAQLKSSLLAEIGLTESEGPPLTSFRPQCSFMGMVISHDMLLGRWRLSLELFGRVFMEDVGAEPGSILTELGGFEVKESKFRREMEKLRNQQSRDLSLEVDRDRDLLIQQTMRQLNNHFGRRCATTPMAVHRVKVTFKDEPGEGSGVARSFYTAIAQAFLSNEKLPNLECIQNANKGTHTSLMQRLRNRGERDREREREREMRRSSGLRAGSRRDRDRDFRRQLSIDTRPFRPASEGNPSDDPEPLPAHRQALGERLYPRVQAMQPAFASKITGMLLELSPAQLLLLLASEDSLRARVDEAMELIIAHGRENGADSILDLGLVDSSEKVQQENRKRHGSSRSVVDMDLDDTDDGDDNAPLFYQPGKRGFYTPRPGKNTEARLNCFRNIGRILGLCLLQNELCPITLNRHVIKVLLGRKVNWHDFAFFDPVMYESLRQLILASQSSDADAVFSAMDLAFAIDLCKEEGGGQVELIPNGVNIPVTPQNVYEYVRKYAEHRMLVVAEQPLHAMRKGLLDVLPKNSLEDLTAEDFRLLVNGCGEVNVQMLISFTSFNDESGENAEKLLQFKRWFWSIVEKMSMTERQDLVYFWTSSPSLPASEEGFQPMPSITIRPPDDQHLPTANTCISRLYVPLYSSKQILKQKLLLAIKTKNFGFV
Regarding B6, the binding entry in test [6] was “binds”.

B7: EDDF1a (EDD aa 1-577) (protein)
chain: MTSIHFVVHPLPGTEDQLNDRLREVSEKLNKYNLNSHPPLNVLEQATIKQCVVGPNHAAFLLEDGRVCRIGFSVQPDRLELGKPDNNDGSKLNSNSGAGRTSRPGRTSDSPWFLSGSETLGRLAGNTLGSRWSSGVGGSGGGSSGRSSAGARDSRRQTRVIRTGRDRGSGLLGSQPQPVIPASVIPEELISQAQVVLQGKSRSVIIRELQRTNLDVNLAVNNLLSRDDEDGDDGDDTASESYLPGEDLMSLLDADIHSAHPSVIIDADAMFSEDISYFGYPSFRRSSLSRLGSSRVLLLPLERDSELLRERESVLRLRERRWLDGASFDNERGSTSKEGEPNLDKKNTPVQSPVSLGEDLQWWPDKDGTKFICIGALYSELLAVSSKGELYQWKWSESEPYRNAQNPSLHHPRATFLGLTNEKIVLLSANSIRATVATENNKVATWVDETLSSVASKLEHTAQTYSELQGERIVSLHCCALYTCAQLENSLYWWGVVPFSQRKKMLEKARAKNKKPKSSAGISSMPNITVGTQVCLRNNPLYHAGAVAFSISAGIPKVGVLMESVWNMNDSCRFQLR
For B7, in test [2], the binding entry is listed as “binds”.

(Values after patent US20060147922A1, “Novel diagnostic and therapeutic methods and reagents therefor” (priority 2002, published 2006).)
